The supplement of paper PMC12819154, “High-throughput peptide-centric local stability assay extends protein–ligand identification to membrane proteins, tissues and bacteria” (Nature Structural & Molecular Biology, 2025)
The other results are listed elsewhere or left out. Most entries show no effect beyond the scatter of the controls.

Protein sequences, listed by entry. Tags and fused reporters are not part of them. Lines headed by an entry give the natural chain unless they say otherwise; changes in a name come on top.
UniProt Q9CQE5: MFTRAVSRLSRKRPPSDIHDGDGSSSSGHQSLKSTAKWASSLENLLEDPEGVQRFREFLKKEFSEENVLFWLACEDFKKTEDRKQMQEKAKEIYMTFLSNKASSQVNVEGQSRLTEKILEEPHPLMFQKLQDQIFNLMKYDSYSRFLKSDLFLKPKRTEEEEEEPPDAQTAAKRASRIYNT
UniProt Q9CQ48: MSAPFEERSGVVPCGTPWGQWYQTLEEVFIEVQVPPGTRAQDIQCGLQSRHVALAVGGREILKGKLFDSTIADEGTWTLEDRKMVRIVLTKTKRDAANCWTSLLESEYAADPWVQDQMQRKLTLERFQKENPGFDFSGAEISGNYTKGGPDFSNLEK
UniProt Q99LS3: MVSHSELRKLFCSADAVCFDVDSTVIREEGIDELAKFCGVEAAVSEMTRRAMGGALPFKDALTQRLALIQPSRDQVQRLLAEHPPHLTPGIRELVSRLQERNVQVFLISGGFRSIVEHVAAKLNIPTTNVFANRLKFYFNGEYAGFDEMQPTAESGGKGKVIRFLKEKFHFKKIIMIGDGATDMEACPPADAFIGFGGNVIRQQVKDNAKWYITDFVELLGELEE
UniProt Q9CQJ6: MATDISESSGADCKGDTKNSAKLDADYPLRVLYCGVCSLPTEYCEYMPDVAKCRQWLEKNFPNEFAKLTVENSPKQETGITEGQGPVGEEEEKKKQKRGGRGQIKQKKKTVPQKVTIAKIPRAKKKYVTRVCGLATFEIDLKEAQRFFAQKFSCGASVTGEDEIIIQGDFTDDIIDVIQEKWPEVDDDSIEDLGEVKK
UniProt Q99PS0: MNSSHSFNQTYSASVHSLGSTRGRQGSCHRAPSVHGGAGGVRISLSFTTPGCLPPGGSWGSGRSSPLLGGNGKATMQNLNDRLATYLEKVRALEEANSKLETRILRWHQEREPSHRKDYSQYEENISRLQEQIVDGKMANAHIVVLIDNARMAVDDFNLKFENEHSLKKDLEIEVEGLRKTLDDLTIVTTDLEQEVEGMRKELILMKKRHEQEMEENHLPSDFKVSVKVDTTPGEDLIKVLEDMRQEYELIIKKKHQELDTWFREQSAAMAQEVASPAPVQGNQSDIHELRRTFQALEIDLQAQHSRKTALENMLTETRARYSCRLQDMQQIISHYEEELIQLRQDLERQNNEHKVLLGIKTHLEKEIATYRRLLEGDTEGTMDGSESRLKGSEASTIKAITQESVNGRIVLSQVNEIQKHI
UniProt Q99M03: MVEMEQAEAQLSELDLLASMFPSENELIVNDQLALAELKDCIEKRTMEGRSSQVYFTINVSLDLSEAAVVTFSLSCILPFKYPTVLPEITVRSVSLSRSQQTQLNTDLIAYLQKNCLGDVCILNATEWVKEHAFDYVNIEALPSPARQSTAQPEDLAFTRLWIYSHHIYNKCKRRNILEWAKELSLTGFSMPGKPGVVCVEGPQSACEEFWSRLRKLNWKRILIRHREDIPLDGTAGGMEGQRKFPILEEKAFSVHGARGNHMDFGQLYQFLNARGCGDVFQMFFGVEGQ
UniProt Q9CQF6: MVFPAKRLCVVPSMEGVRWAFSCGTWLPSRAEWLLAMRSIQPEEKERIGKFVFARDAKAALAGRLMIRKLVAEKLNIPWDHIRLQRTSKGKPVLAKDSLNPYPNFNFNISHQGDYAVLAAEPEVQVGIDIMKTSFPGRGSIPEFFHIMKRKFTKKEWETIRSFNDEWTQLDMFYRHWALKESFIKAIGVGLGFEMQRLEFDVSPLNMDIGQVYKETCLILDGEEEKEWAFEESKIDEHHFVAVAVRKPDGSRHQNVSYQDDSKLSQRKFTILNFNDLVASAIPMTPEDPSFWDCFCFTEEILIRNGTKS
UniProt Q9CQF8: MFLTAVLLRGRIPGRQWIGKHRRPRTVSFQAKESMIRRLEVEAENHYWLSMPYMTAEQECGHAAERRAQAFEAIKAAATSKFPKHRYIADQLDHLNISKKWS
UniProt Q9CQT7: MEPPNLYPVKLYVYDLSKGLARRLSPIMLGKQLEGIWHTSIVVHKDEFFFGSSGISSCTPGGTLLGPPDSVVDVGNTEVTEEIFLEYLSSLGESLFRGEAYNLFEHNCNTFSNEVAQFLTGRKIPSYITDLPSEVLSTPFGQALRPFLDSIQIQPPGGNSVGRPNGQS
UniProt Q9CQA1, whole entry: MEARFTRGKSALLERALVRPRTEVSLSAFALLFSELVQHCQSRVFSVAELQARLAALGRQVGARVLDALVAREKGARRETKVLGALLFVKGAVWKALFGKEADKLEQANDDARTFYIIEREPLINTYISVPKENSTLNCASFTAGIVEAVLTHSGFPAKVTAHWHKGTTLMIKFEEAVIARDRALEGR
UniProt Q9CPR1: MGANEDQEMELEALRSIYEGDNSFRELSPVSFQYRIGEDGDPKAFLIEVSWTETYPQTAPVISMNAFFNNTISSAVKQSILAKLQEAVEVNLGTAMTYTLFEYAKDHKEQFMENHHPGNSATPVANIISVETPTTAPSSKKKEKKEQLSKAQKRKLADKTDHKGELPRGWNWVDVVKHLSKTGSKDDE
UniProt Q9CQD1: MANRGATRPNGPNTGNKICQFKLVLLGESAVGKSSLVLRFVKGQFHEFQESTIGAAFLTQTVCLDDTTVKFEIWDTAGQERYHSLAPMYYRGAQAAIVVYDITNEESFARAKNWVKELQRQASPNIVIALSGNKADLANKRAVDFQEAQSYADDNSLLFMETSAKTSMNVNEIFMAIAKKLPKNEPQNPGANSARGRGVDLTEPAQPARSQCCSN
UniProt Q99N42: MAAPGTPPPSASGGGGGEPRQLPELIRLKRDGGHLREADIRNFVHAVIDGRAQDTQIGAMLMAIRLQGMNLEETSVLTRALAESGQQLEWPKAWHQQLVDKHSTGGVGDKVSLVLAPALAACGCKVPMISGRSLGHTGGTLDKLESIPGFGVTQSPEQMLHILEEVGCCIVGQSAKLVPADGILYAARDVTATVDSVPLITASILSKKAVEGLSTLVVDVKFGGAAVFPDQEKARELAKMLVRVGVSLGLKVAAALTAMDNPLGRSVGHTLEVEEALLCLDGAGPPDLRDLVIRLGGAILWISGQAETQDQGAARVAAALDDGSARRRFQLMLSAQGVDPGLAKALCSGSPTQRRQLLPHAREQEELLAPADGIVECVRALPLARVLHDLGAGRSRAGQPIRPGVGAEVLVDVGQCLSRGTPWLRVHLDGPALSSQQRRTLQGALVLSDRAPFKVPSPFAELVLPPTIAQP
UniProt Q9CR37: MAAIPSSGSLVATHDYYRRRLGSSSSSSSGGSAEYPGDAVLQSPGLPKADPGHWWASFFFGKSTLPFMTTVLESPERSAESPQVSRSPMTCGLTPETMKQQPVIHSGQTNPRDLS
UniProt Q99PN3: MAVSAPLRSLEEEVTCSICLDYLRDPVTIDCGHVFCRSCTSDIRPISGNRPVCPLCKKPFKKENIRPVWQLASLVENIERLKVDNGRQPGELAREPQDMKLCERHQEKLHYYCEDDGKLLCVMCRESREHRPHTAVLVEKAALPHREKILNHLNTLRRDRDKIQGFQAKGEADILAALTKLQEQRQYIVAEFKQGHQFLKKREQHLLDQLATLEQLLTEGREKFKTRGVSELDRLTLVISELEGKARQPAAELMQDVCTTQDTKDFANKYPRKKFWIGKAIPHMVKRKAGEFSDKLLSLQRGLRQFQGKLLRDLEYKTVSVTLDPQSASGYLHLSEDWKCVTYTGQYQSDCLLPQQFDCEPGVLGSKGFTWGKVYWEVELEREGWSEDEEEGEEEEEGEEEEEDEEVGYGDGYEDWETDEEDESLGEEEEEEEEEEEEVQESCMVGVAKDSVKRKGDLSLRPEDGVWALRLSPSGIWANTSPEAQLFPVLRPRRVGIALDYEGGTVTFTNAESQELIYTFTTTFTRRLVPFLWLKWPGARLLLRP
UniProt Q99LX0: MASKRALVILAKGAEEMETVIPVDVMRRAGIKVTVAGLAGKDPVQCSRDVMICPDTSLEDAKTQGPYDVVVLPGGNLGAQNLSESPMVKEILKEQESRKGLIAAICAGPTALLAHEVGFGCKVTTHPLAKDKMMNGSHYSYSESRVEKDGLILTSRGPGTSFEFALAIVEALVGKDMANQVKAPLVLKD
UniProt Q9CQ13: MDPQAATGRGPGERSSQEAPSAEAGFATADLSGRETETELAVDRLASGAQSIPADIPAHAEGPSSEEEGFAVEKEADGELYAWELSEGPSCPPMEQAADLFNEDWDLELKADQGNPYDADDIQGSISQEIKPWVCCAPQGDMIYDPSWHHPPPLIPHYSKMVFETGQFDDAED
UniProt Q99MZ7: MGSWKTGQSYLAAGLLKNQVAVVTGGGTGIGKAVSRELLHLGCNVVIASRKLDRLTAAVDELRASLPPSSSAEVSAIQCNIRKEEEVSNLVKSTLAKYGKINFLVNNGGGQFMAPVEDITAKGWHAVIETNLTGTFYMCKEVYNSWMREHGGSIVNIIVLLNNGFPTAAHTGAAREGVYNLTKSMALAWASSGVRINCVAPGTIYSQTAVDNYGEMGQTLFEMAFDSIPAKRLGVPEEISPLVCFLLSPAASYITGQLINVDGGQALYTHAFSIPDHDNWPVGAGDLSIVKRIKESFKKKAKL
UniProt Q9CPP6: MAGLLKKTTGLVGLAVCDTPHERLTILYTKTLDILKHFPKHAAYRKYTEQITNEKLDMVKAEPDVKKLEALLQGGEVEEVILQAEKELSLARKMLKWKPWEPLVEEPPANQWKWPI
UniProt Q99MP8: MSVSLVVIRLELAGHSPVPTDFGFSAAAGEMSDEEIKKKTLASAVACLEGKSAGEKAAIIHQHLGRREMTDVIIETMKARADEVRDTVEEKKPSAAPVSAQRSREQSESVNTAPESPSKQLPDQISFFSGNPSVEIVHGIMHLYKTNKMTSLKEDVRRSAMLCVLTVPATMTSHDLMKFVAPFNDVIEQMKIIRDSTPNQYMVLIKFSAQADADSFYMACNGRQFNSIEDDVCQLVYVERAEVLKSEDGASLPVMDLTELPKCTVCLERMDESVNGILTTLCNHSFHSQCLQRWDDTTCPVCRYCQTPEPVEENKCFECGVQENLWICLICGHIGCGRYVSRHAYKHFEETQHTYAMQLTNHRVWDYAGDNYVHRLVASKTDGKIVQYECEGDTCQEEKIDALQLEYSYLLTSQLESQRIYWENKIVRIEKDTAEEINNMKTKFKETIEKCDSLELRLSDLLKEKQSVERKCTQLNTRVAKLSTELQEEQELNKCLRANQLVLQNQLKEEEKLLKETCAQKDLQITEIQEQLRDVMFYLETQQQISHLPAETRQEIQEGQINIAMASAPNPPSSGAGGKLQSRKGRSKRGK
UniProt Q99MB7: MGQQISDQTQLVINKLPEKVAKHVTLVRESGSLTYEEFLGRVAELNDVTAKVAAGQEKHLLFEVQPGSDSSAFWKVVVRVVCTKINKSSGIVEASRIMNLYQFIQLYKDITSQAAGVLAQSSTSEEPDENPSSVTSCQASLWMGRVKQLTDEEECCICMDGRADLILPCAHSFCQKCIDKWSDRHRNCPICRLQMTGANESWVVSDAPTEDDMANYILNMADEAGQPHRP
UniProt Q9CR50: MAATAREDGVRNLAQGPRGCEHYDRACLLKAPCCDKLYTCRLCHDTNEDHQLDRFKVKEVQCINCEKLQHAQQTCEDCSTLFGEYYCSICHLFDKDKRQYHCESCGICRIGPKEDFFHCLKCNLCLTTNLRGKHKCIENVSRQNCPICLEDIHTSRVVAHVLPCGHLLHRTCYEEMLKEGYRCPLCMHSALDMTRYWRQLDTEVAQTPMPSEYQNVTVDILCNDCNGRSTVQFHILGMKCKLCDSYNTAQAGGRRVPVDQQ
UniProt Q9CQR5: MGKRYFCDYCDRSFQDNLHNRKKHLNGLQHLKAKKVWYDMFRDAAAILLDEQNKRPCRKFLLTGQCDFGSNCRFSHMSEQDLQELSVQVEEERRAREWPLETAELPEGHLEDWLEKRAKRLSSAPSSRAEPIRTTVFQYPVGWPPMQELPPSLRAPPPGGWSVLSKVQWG
UniProt Q99N87, whole entry: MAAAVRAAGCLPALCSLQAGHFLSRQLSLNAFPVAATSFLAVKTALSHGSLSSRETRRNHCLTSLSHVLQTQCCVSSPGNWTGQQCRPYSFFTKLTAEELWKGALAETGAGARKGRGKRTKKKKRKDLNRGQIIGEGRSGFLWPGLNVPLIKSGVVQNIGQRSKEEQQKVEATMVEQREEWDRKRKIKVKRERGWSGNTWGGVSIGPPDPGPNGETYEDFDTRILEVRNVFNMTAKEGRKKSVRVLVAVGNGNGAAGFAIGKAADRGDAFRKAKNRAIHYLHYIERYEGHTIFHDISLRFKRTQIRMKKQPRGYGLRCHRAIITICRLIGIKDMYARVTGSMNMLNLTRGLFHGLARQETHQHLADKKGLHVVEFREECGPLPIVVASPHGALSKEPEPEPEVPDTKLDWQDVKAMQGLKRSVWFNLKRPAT
UniProt Q99MS8: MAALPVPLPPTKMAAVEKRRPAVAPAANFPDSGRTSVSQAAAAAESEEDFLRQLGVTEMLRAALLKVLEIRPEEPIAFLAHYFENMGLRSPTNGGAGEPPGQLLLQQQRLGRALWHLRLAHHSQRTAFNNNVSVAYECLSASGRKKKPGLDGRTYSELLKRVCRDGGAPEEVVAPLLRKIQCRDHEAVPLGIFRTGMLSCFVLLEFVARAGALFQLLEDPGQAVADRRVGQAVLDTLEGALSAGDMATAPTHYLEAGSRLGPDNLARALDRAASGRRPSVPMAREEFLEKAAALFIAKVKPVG

Each target was assayed with CN[C@@H]1C[C@H]2O[C@@](C)([C@@H]1OC)n1c3ccccc3c3c4c(c5c6ccccc6n2c5c31)C(=O)NC4 [staurosporine] (assay: log2 fold change of tryptic peptide abundance, ligand vs vehicle (limited proteolysis) (log2 ratio); higher = more trypsin-susceptible (destabilized)). Details: ligand concentration: 20 uM; sample: mouse liver crude lysate; replicate design: treated separately.

| Target | log2 fold change |
| --- | --- |
| UniProt Q9CQE5 (peptide sequence: ASSQVNVEGQSR, peptide start residue: 102) | 0.194 |
| UniProt Q9CQ48 (peptide sequence: GGPDFSNLEK, peptide start residue: 148) | 0.0647 |
| UniProt Q99LS3 (peptide sequence: LALIQPSRDQVQR, peptide start residue: 66) | -0.557 |
| UniProt Q9CQJ6 (peptide sequence: WPEVDDDSIEDLGEVKK, peptide start residue: 182) | 0.544 |
| UniProt Q99PS0 (peptide sequence: IVLSQVNEIQK, peptide start residue: 410) | -0.12 |
| UniProt Q99M03 (peptide sequence: HREDIPLDGTAGGMEGQR, peptide start residue: 226) | -0.167 |
| UniProt Q9CQ69 (peptide sequence: HVISYSLSPFEQR, peptide start residue: 13) | -0.204 |
| UniProt Q9CQF6 (peptide sequence: KLVAEKLNIPWDHIR, peptide start residue: 69) | 0.395 |
| UniProt Q99MI1 (peptide sequence: REDSLSDSSQQLQDSLR, peptide start residue: 821) | -0.407 |
| UniProt Q9CQF8 (peptide sequence: AAATSKFPK, peptide start residue: 76) | -0.295 |
| UniProt Q9CQJ4 (peptide sequence: VNKPMELYYAPTK, peptide start residue: 321) | 0.587 |
| UniProt Q9CQT7 (peptide sequence: RLSPIMLGK, peptide start residue: 23) | 0.165 |
| UniProt Q9CQA1 (peptide sequence: VFSVAELQAR, peptide start residue: 44) | 0.257 |
| UniProt Q9CR56 (peptide sequence: VDPDVAQHWAK, peptide start residue: 130) | 0.243 |
| UniProt Q9CPR1 (peptide sequence: LADKTDHKGELPR, peptide start residue: 156) | -0.286 |
| UniProt Q9CQD1 (peptide sequence: GRGVDLTEPAQPAR, peptide start residue: 196) | -0.578 |

2 records picked at random from the list so far, as already listed:

| Target | log2 fold change |
| --- | --- |
| UniProt Q99MI1 (peptide sequence: REDSLSDSSQQLQDSLR, peptide start residue: 821) | -0.407 |
| UniProt Q9CQ69 (peptide sequence: HVISYSLSPFEQR, peptide start residue: 13) | -0.204 |

Next part:

| Target | log2 fold change |
| --- | --- |
| UniProt Q99N42 (peptide sequence: TLQGALVLSDR, peptide start residue: 440) | -0.373 |
| UniProt Q9CR37 (peptide sequence: QQPVIHSGQTNPR, peptide start residue: 100) | 0.191 |
| UniProt Q99PN3 (peptide sequence: EHRPHTAVLVEK, peptide start residue: 129) | -0.376 |
| UniProt Q99LX0 (peptide sequence: DKMMNGSHYSYSESR, peptide start residue: 131) | 0.0774 |
| UniProt Q9CQ13 (peptide sequence: ETETELAVDR, peptide start residue: 35) | 0.195 |
| UniProt Q99MZ7 (peptide sequence: KEEEVSNLVK, peptide start residue: 83) | -0.551 |
| UniProt Q9CPP6 (peptide sequence: KYTEQITNEKLDMVK, peptide start residue: 46) | 0.255 |
| UniProt Q99MP8 (peptide sequence: IVRIEKDTAEEINNMK, peptide start residue: 426) | 0.648 |
| UniProt Q99MB7 (peptide sequence: VAELNDVTAK, peptide start residue: 42) | 0.228 |
| UniProt Q9CQ19 (peptide sequence: GNFNYVEFTR, peptide start residue: 152) | 0.135 |
| UniProt Q9CR50 (peptide sequence: TCYEEMLK, peptide start residue: 171) | 0.334 |
| UniProt Q9CQQ7 (peptide sequence: RKEEEHMIDWVEK, peptide start residue: 209) | 0.157 |
| UniProt Q9CQR5 (peptide sequence: HLNGLQHLK, peptide start residue: 24) | 0.617 |
| UniProt Q99N87 (peptide sequence: DLNRGQIIGEGR, peptide start residue: 127) | -0.44 |
| UniProt Q99MS8 (peptide sequence: TYSELLKR, peptide start residue: 154) | -0.38 |
